Like-named read-outs stand apart in the source and are kept apart here.
How the values were obtained:
[1] = GC-MS identification and quantification of volatiles in cat feces; conditions: for Peak area ratio of volatile in feces: peak area / internal standard; for Estimated concentration in cat feces, 95% confidence interval: dry matter
[2] = GC-MS identification and quantification of volatiles in cat urine; conditions: for Peak area ratio of volatile in urine: peak area / internal standard; for Estimated concentration in cat urine, 95% confidence interval: N=7
[3] = cited from earlier work

Compound | Peak area ratio of volatile in feces ([1]; intact female cats (N=8)) | Peak area ratio of volatile in feces ([1]; intact male cats (N=10)) | further results
CCCCCCCCCCCCCCCC(=O)O [Hexadecanoic acid] | 0.15 | 0.15 | –
Cc1ncsc1CCO [4-Methyl-5-thiazoleethanol] | 0.02 | 0.02 | –
CC(=O)O [Acetic acid] | 0.40 | 0.52 | –
O=C1CCC=CN1 [2,3-Dethydropiperidin-6-one] | – | – | Peak area ratio of volatile in urine ([2]; intact female cats (N=7)): 0.06; Peak area ratio of volatile in urine ([2]; intact male cats (N=7)): 0.08
CC(C)CC(O)CC(C)C [4-Heptanol, 2,6-Dimethyl] | – | – | Peak area ratio of volatile in urine ([2]; intact female cats (N=7)): 0.06; Peak area ratio of volatile in urine ([2]; intact male cats (N=7)): 0.24
CCCCC(=O)O [Pentanoic acid] | 2.40 | 2.81 | –
CCCCCCCC/C=C\CCCCCCCC(=O)O [Oleic acid/8-Octadecenoc acid, Oleic acid] | 1.76 | 2.41 | –
CCCC(=O)O [Butanoic acid/butyric acid, Butanoic acid] | 2.78 | 4.85 | higher in the feces of males than females ([1]; abstract of Example 1, P=0.02 (concentration, Table 6)): 98%; higher in male feces than in female feces ([1]; discussion, matches peak area ratio of Table 5): 74.5%; Estimated concentration in cat feces, 95% confidence interval ([1]; female cats, N=8): 5050-18348 μg/g DM; Estimated concentration in cat feces, 95% confidence interval ([1]; male cats, N=10): 16271-30090 μg/g DM
CCCCCCCC/C=C\CCCCCCCC(=O)OCC [9-Octadecenoic acid (z)-athyl ester] | 0.13 | 0.04 | –
CCCCC/C=C/C/C=C/CCCCCCCC(=O)O [Lenoelaidic acid] | 0.40 | 0.52 | –
Cc1ccc(C=O)c(C)c1 [2-4-Dimethyl-Benzaldehyde] | – | – | Peak area ratio of volatile in urine ([2]; intact female cats (N=7)): 0.11; Peak area ratio of volatile in urine ([2]; intact male cats (N=7)): 0.09
CC(C)(S)CCO [MMB, 3-Mercapto-3-Methyl Butanol] | – | – | higher concentration in the urine of males than females ([2]; P<0.001): seven; Estimated concentration in cat urine, 95% confidence interval ([2]; female cats): 0.00 to 1.63 µg/mL; quantity estimated in urine, on average ([2]; intact female cat): 0.81 ppm; Peak area ratio of volatile in urine ([2]; intact female cats (N=7)): 0.02; quantity estimated in urine, on average ([2]; intact male cat): 6.60 ppm; Peak area ratio of volatile in urine ([2]; intact male cats (N=7)): 0.14; Estimated concentration in cat urine, 95% confidence interval ([2]; male cats): 2.22 to 10.99 µg/mL; level in cat feces ([3]; intact males): 50 ng/g wet feces
CCC(=O)O [Propanoic acid] | 0.66 | 0.56 | –
O=C1CCCCN1 [2-Piperidinone] | 0.25 | 0.20 | –
CCCCCC/C=C/CCCCCCCCO [Hexadecen-1-ol, trans-9-] | 0.16 | 0.12 | –
CCCCCCCCCCCCCCCCCCOC(=O)OCC [Carbonic acid, ethyl octadecyl ester] | 0.31 | 0.29 | –
CCCCCC(=O)O [Hexonoic acid] | 1.22 | 0.93 | –
CC/C=C\CC1=C(C)CCC1=O [Cis-Jasmone] | – | – | Peak area ratio of volatile in urine ([2]; intact female cats (N=7)): 0.09; Peak area ratio of volatile in urine ([2]; intact male cats (N=7)): 0.04
CC(C)(CCO)SC[C@H](N)C(=O)O [felinine, reference compound] | – | – | excretion rate in the urine ([3]; intact female cats): 19 mg/day; excretion rate in the urine ([3]; sex not given, compared with intact female cats (male cats implied)): 95 mg/day
Q-Docecalactone | 0.01 | 0.02 | –
O=C(O)C(C(=O)O)c1ccccc1 [Propanedioic acid, phenol] | 0.23 | 0.44 | –
CCCCCCCCCCCCCCCC(=O)OCC [Hexadecanoic acid, ethyl ester] | 0.09 | 0.08 | –
c1ccc2[nH]ccc2c1 [1-H indole] | 0.24 | 0.22 | –

— patent publication US20230157281A1, “COMPOSITIONS AND METHODS FOR REPELLING ANIMALS FROM AN OBJECT” (Texas Tech University System, priority 2020, published 2023)
